Experimental data from paper PMC4381216.
Results are given in words; binding and its absence hold for the method and conditions named. Binding seen in cells or lysates may run through a third protein. Some entries that bind do so weakly or less than the wild type.

Protein sequences, listed by entry. Tags and fused reporters are not part of them.
UniProt Q9NZL3: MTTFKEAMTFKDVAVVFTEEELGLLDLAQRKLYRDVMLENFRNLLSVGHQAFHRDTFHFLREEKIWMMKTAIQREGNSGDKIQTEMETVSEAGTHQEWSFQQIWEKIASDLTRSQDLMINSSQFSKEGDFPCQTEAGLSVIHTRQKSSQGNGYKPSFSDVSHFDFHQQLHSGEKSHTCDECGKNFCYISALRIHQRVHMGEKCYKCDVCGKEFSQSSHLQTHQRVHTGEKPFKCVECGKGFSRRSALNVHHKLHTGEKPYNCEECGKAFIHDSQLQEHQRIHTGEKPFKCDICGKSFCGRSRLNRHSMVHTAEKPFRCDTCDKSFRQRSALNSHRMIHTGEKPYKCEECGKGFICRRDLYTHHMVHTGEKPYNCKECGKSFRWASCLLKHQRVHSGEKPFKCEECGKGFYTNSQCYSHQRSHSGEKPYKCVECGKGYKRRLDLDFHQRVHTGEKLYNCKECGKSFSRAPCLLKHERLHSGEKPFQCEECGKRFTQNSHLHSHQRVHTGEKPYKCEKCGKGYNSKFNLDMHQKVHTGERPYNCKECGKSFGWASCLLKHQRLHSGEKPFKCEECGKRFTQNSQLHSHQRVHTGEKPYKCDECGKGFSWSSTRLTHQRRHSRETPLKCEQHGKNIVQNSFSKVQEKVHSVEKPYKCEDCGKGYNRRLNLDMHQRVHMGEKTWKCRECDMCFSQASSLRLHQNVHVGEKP
UniProt Q13263: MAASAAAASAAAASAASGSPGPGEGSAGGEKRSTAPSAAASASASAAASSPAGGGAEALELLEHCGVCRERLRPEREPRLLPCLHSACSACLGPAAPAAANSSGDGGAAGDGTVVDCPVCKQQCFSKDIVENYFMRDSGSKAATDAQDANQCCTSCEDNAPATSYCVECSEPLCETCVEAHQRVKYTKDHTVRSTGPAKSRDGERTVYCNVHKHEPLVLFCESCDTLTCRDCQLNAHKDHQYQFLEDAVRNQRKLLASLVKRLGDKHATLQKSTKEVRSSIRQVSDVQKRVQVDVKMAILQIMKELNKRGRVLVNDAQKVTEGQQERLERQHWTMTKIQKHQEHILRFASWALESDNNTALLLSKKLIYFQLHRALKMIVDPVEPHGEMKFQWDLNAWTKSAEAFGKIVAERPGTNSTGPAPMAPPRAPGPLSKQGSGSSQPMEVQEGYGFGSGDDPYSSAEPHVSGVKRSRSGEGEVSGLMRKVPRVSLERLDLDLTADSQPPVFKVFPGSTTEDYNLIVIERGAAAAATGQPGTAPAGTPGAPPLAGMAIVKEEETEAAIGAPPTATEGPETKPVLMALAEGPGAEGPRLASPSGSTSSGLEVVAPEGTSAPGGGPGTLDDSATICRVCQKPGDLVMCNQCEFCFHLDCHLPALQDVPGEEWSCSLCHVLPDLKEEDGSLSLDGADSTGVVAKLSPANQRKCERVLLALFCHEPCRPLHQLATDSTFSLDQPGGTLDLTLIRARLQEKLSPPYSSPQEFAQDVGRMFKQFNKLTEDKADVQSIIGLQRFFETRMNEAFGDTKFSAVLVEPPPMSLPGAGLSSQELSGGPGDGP
UniProt O14744: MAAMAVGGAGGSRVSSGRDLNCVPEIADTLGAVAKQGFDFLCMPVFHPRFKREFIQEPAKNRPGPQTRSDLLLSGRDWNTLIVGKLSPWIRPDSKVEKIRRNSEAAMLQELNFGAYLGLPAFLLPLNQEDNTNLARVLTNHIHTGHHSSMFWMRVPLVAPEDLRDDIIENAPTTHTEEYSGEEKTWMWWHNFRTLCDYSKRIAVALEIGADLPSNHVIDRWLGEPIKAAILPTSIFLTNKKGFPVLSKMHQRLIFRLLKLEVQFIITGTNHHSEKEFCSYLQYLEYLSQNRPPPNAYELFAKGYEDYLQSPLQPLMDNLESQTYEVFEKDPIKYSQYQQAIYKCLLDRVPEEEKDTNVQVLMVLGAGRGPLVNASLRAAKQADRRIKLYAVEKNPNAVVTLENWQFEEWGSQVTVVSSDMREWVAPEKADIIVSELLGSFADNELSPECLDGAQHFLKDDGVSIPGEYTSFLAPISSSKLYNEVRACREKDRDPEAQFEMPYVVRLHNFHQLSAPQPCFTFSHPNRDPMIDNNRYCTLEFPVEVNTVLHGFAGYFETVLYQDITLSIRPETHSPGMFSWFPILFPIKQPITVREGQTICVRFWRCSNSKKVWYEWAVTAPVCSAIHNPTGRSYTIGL

Key:
3xFlag-ZNF224 = 3xFlag-ZNF224 (UniProt Q9NZL3); experiment: co-IP; HEK293 cells transfected with 3xFlag-ZNF224, with or without 2 mM AdOx for 24 h; 1 mg protein extract, anti-Flag M2 antibody or control IgG overnight at 4 °C, Protein A/G PLUS Agarose; Western blot with anti-KAP1
[1] = target: 3xFlag-KAP1 (KRAB-associated protein 1) (UniProt Q13263); experiment: co-IP; HEK293 cells transfected with 3xFlag-KAP1; 1 mg protein extract, anti-Flag M2 antibody or control IgG overnight at 4 °C, Protein A/G PLUS Agarose; Western blot with anti-PRMT5

Substance | binding (3xFlag-ZNF224) | binding [1]
KAP1 (KRAB-associated protein 1), endogenous (from UniProt Q13263 1-835) | binds | –
PRMT5, protein arginine methyltransferase (endogenous) (from UniProt O14744 1-637) (enzyme) | – | binds
